PubChem BioAssay AID1259254, NCATS, 2017

- Aim: 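Genome-wide screen for genes that prevent DNA re-replication in cancer cells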 (primary screen)
- Cell system: human HCT116 colorectal cancer cells
- Knock-down reagent: single siRNA against human genes
- Timing: 3 days
- Measurement: 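Nuclei stained with Hoechst and imaged; cell-cycle phase assigned by DNA content; G2 share scaled per plate, non-targeting siRNA 0%, GMNN siRNA 100%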
- Reading the numbers: G2 robust z-score: higher = more G2 cells, more excess DNA replication
- Hit rule: 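Active siRNAs have a G2 robust z of 5 or more median absolute deviations over the median, which in these data means about 38% or higher of GMNN control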
The whole screen tested about 59,000 reagents; this is a part drawn at random. About 1,550 of all reagents (2.6%) were called active. 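G2 share is only a proxy for re-replication; each gene was hit by three separate siRNAs, and active genes were retested.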 Reagents against one gene are numbered here. Not all columns of the deposit are shown. No sequences are given here. Not stated in the record: the amount of reagent.

no.	target gene	reagent	G2 robust z-score	call
1	INTS6L	1	-0.256	inactive
2	INTS6L	2	1.02	inactive
3	INTS6L	3	-0.14	inactive
4	CDC26	1	0.509	inactive
5	CDC26	2	3.78	inactive
6	CDC26	3	3.19	inactive
7	RALGPS1	1	-0.849	inactive
8	RALGPS1	2	-0.62	inactive
9	RALGPS1	3	0.904	inactive
10	TRDMT1	1	-0.512	inactive
11	TRDMT1	2	-0.269	inactive
12	TRDMT1	3	-0.546	inactive
13	HUNK	1	-0.976	inactive
14	HUNK	2	-1.2	inactive
15	HUNK	3	-0.498	inactive
16	FHOD3	1	0.006	inactive
17	FHOD3	2	-0.343	inactive
18	FHOD3	3	-0.817	inactive
19	GMFG	1	-0.772	inactive
20	GMFG	2	-0.517	inactive
21	GMFG	3	-1.08	inactive
22	MEF2A	1	-0.413	inactive
23	MEF2A	2	-0.46	inactive
24	MEF2A	3	1.46	inactive
25	DENND5A	1	-0.32	inactive
26	DENND5A	2	2.15	inactive
27	DENND5A	3	6.23	active

Active calls, among the entries above:
target gene	reagent	G2 robust z-score	call
DENND5A	3	6.23	active

More records:
no.	target gene	reagent	G2 robust z-score	call
28	CCDC73	1	0.136	inactive
29	CCDC73	2	-1.05	inactive
30	CCDC73	3	-0.656	inactive
31	SULT1C3	1	4.96	inactive
32	SULT1C3	2	0.712	inactive
33	SULT1C3	3	-0.809	inactive
34	RPL30	1	4.19	inactive
35	RPL30	2	3.15	inactive
36	RPL30	3	3.3	inactive
37	CHMP5	1	0.141	inactive
38	CHMP5	2	0.928	inactive
39	CHMP5	3	4.59	inactive
40	VPREB3	1	0.565	inactive
41	VPREB3	2	0.316	inactive
42	VPREB3	3	-0.728	inactive
43	PIGT	1	3.26	inactive
44	PIGT	2	1.21	inactive
45	PIGT	3	-0.00368	inactive
46	NMT2	1	0.72	inactive
47	NMT2	2	-1.06	inactive
48	NMT2	3	0.552	inactive
